Experimental data reported in publication PMC10082770.

By UniProt entry, the sequences of proteins in these tests, tags left out.
UniProt Q9UMS4: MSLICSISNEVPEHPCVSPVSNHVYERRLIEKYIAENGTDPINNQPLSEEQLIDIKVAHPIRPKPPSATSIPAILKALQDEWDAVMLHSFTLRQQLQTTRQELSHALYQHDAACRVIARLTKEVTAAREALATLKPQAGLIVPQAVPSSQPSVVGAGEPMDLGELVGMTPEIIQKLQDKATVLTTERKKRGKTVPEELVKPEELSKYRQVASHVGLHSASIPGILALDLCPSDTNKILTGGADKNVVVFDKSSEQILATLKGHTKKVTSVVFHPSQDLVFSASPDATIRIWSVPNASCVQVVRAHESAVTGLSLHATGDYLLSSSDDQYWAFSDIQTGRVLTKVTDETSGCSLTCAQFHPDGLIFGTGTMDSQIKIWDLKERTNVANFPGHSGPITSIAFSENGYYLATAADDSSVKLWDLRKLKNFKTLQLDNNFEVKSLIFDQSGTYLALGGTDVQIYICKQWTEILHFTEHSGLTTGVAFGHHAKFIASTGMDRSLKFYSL
UniProt P26038: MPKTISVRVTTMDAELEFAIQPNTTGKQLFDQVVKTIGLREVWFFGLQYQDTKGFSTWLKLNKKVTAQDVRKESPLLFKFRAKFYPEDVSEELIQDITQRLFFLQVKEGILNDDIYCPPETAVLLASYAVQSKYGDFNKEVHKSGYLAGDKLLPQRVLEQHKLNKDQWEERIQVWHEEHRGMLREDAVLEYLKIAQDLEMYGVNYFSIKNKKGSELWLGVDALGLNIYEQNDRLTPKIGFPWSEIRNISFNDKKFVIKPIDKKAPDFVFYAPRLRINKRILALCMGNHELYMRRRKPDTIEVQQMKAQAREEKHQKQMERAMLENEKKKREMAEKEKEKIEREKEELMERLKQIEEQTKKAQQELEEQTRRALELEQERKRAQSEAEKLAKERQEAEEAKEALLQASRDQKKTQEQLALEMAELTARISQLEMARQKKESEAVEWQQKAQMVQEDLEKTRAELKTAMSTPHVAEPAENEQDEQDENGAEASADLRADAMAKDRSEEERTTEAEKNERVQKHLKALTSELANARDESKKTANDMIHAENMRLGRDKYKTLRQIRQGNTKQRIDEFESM
UniProt P07951: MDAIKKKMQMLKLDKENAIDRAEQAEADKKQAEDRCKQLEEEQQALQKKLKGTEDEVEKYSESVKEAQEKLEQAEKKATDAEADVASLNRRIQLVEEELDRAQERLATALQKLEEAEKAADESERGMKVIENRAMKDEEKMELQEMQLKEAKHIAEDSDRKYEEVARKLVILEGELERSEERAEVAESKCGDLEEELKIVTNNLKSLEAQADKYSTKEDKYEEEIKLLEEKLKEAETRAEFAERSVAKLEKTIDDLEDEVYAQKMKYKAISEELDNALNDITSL

Columns and labels:
[1] = biological target: PRPF19 immunoprecipitated from DLD1 cells for LC-MS/MS (UniProt Q9UMS4); assay: affinity purification with mass spectrometry; DLD1 cells treated with MG132 (20 uM) for 5 h; lysate immunoprecipitated with anti-PRPF19 antibody or IgG, Protein A/G magnetic beads; silver staining and LC-MS/MS
[2] = biological target: PRPF19 immunoprecipitated from DLD1 cells for LC-MS/MS (UniProt Q9UMS4); assay: as above; remark: listed apart in the source

In the case of MSN (from UniProt P26038 1-577), the binding [1] is reported as “binds”.

TPM2 (from UniProt P07951 1-284) was tested, and the binding [1] was “binds”.

B1: MYL9 (endogenous) (protein, UniProt P24844 1-172)
chain: MSSKRAKAKTTKKRPQRATSNVFAMFDQSQIQEFKEAFNMIDQNRDGFIDKEDLHDMLASLGKNPTDEYLEGMMSEAPGPINFTMFLTMFGEKLNGTDPEDVIRNAFACFDEEASGFIHEDHLRELLTTMGDRFTDEEVDEMYREAPIDKKGNFNYVEFTRILKHGAKDKDD
For B1, the binding [2] was “binds”.

Like-named read-outs stand apart in the source and are kept apart here. These are yes or no findings as the source states them, for the method shown. In cells and extracts the contact can be indirect. A yes stands for co-enrichment or nearness to the bait. Other partners may have been found.
